PubChem BioAssay AID1508600 (Functional Genomics Laboratory (NCATS/FGL), 2020)
In all, about 53,000 sequences went through this assay and about 3,700 (7%) were called active.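 The calls were made as follows: active = gene knockdowns whose robust z-score for IL-1 alpha signal is at least 2 or at most -2, so actives lie on both sides; inactive = the rest.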 The list shows a part of the results.

Assay: Components of the Cytosolic LPS Sensing Pathway: Gene Identification via Genome-wide siRNA Screen;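 also: robust z of the log signal after scaling to non-targeting control siRNA wells of the plate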
Conditions: RAW264.7 macrophages, IL-1a HTRF, actives lie on both sides, screened at 100 nM (by protocol), cells primed 5 h with Pam3CSK4 first
Summary of the method: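 Using IL-1a HTRF as read-out, the screen measured release from RAW264.7 cells after 48h siRNA knockdown (100 nM), 5 h Pam3CSK4 priming and 24 h cytosolic LipidA. Values were expressed relative to negative-control wells as robust z-scores.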

| Sequence | z-score |
| --- | --- |
| GUGGAAAUUAAUCUGGGUUTT against Tmem191c | inactive: 0.394 |
| GGCCAGUCUUAUGAAAUUCTT against Ubp1 | inactive: -0.521 |
| CCUGUUUGUACAUCCUUGGTT against Olfr748 | inactive: -1.25 |
| GGGUGAGAGAUCCCAAGUUTT against Cypt1 | inactive: 0.784 |
| GGACAGAGUGAAACUUUAUTT against Pcdhga9 | inactive: -0.588 |
| GGAGAAAGUCAAGAUCAAATT against Gpr4 | active: 2.12 |
| CCGUGACAGUCAUGUUGAUTT against Amt | inactive: 0.235 |
| CCUUCGGAUACUACUUUUCTT against Olfr531 | inactive: -0.732 |
| CGCUGGUACCUGAAAUAUUTT against Rnf123 | inactive: 1.61 |
| GGUCCUUGUCUCUCAUGUATT against Snap29 | inactive: 0.287 |
| CCUUACCACAUCCUUGUCGTT against Fcf1 | inactive: -1.33 |
| GCGUGUGCUAAUGAAAAUGTT against Fxr1 | inactive: -0.48 |
| GGGAAAGUUAAUAUCAAGATT against Ephb4 | inactive: 0.185 |
| GGUAAAAUCACUUCAGAUCTT against Phb | active: 2.23 |
| GGAUUUUCAUCGUGCUUUGTT against Necab3 | inactive: 1.23 |
| GGAGGAAGAGAAGUACAUUTT against Khdrbs3 | inactive: 1.66 |
| GGCUAAGCAAGGCUAUGUCTT against Rpl15 | inactive: -1.01 |
| GGAAUUUACUUACAUCAUGTT against Rbp3 | inactive: 0.179 |
| GGAAAAUGACUUCAGCUGGTT against Sfmbt2 | inactive: -1.45 |
| GCUCUAUGUACGCGUUAGATT against Col18a1 | inactive: -0.217 |
| GCAGAGUCUGGAUCAACAUTT against Efcab14 | inactive: -0.583 |
| GGCACCUCUGCUUUUAAAGTT against Mrm2 | inactive: 0.926 |
| GGUCAGAGAACUCUCUACATT against Zfp68 | inactive: -1.24 |
| GGAUCCACAAGGAAUUUAUTT against 9530003J23Rik | inactive: 0.0919 |
| GGAUCUAAAGGGUAGUGUCTT against Trim61 | inactive: 0.254 |
| GGCUCCGAAUAGGAGAUCATT against Crk | inactive: 0.348 |
| GCCCAAUAGCCUAGGACCUTT against Sh2d7 | inactive: -0.1 |
| GGUGAUUUGCUCAAUCCAATT against Phox2a | inactive: 0.611 |
| GGAUAAUGAUGUGAAAGGCTT against Mrps30 | inactive: 0.984 |
| CAGUAUGGCCCUGUCCUACTT against Hand2 | inactive: 0.705 |

Another view of some results above.
Sequence	z-score
GUGGAAAUUAAUCUGGGUUTT against Tmem191c	inactive: 0.394
GCGUGUGCUAAUGAAAAUGTT against Fxr1	inactive: -0.48
